PubChem BioAssay AID1224830 – NIAID – 2016

Aim: 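Regulators of TLR4 signalling towards TNF-alpha in macrophage-like cells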 (primary screen)
Cells: human THP-1 monocytic leukaemia cells, TNF dual-luciferase reporter clone, PMA-differentiated to macrophage-like cells
Reagent: siRNA pool against human genes, 50 nM
Timing: LPS for 4 h, given about 3 days after siRNA transfection
Conditions: bacterial LPS (TLR4 ligand), 10 ng/ml
Measured: 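Ratio of firefly to renilla light, scaled to the plate median and expressed as a robust z-score per replicate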
Scale: TNF reporter robust z-score: higher = stronger TNF reporter response to LPS
Rule for the call: 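Each well counts as active if its z-score is over 2.8 or under -1.5; controls are left without a call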
The whole screen tested about 18,000 reagents; below is a part drawn at random. Of all reagents, about 2,900 (16%) got an active call. 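Calls are made per well; low scores hint the gene aids the LPS response, high scores that it dampens it.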 Repeated entries: four replicate wells of each siRNA pool. Reagent sequences are not shown.

target,TNF reporter robust z-score,outcome
NCK1,0.11,inactive
NCK1,3.41,active
NCK1,0.63,inactive
NCK1,3.49,active
MYOM2,-0.1,inactive
MYOM2,0.03,inactive
MYOM2,0.58,inactive
MYOM2,-0.01,inactive
IQUB,0.12,inactive
IQUB,-0.17,inactive
IQUB,0.33,inactive
IQUB,0.82,inactive
ANKHD1-EIF4EBP3,1.22,inactive
ANKHD1-EIF4EBP3,0.03,inactive
ANKHD1-EIF4EBP3,-0.63,inactive
ANKHD1-EIF4EBP3,1.31,inactive
PCF11,-2.09,active
PCF11,-1.95,active
PCF11,-1.97,active
PCF11,-2.01,active
ARHGDIB,-0.7,inactive
ARHGDIB,-0.48,inactive
ARHGDIB,-0.82,inactive
ARHGDIB,-0.02,inactive
ULBP3,0.39,inactive
ULBP3,0.76,inactive
ULBP3,1.4,inactive
ULBP3,0.68,inactive
PLEKHG3,-0.94,inactive
PLEKHG3,-0.35,inactive
PLEKHG3,-1.03,inactive
PLEKHG3,-0.63,inactive
ZNF235,-0.7,inactive
ZNF235,-0.66,inactive
ZNF235,-0.64,inactive
ZNF235,-0.1,inactive
NDUFA9,-0.04,inactive
NDUFA9,2.73,inactive
NDUFA9,1.68,inactive
NDUFA9,1.82,inactive
ALK,-1.98,active
ALK,-1.92,active
ALK,-1.73,active
ALK,-1.13,inactive
ZMAT3,0.19,inactive
ZMAT3,0.74,inactive
ZMAT3,2.53,inactive
ZMAT3,-0.37,inactive
LTN1,0.25,inactive
LTN1,-0.12,inactive
LTN1,1.54,inactive
LTN1,1.37,inactive
TXNDC11,-1.02,inactive
TXNDC11,0.74,inactive
TXNDC11,-0.87,inactive
TXNDC11,-0.63,inactive
CYP2E1,0.36,inactive
CYP2E1,0.72,inactive
CYP2E1,0.16,inactive
CYP2E1,0.24,inactive
SULF2,-0.48,inactive
SULF2,0.69,inactive
SULF2,0.86,inactive
SULF2,1.18,inactive
KLHL34,-0.14,inactive
KLHL34,-0.48,inactive
KLHL34,-0.9,inactive
KLHL34,-1.36,inactive
LINC01600,0.53,inactive
LINC01600,0.27,inactive
LINC01600,-0.12,inactive
LINC01600,-0.02,inactive
HAX1,-0.58,inactive
HAX1,-0.4,inactive
HAX1,-0.13,inactive
HAX1,0.27,inactive
